The values that follow come from patent publication US4470926A (priority 1980, dated 1984).

This data set is described as follows: general procedure: solution-phase peptide synthesis; mixed anhydride (stepwise); dicyclohexylcarbodiimide/1-hydroxybenzotriazole (fra).

For the substance Ddz-(7-12)-OH, the step yield (late stage modification step) worked out at 57%.
Turning to Ddz-(7-28)-OBzl, the step yield (coupling step) was found to be 67%.
With Ddz-(20-24)-OH, for the setting “late stage modification step”, the step yield is on record as 76%.
On to Ddz-Ala-Ala-Val-Asp(OBu^t)-OBzl, for which the step yield (coupling step) amounted to 70%.
Still for that read-out and setting: the result for “Ddz-Asp(OBu^t)-Ala-Ala-Val-Asp(OBu^t)-OBzl” reads 85%.
The same measure, in the same setting: the result for “Ddz-Asp(OBu^t)-Leu-Lys(Z)-Glu(OBu^t)-Lys(Z)-OMe” reads 84%; that for “Ddz-Glu(OBu^t)-Ala-Glu(OBu^t)-Asn(Mbh)-IBzl”, 78%.
Ddz-Glu(OBu^t)-Val-Val-Glu(OBu^t)-OMe came in with a step yield (coupling step) of 94%.
With Ddz-Leu-Lys(Z)-Glu(OBu^t)-Lys(Z)-OMe, the step yield (coupling step) was 77%.
In the case of “Ddz-Lys(Z)-Asp(OBu^6)-Leu-Lys(Z)-Glu-(OBu^t)-Lys(Z)-OMe”, the step yield entry (coupling step) was “about 100%”.
Still for that read-out and setting: the result for “Ddz-Lys(Z)-Glu(OBu^t)-Val-Val-Glu(OBu^t)-OMe” reads 99%; that for “Ddz-Ser(Bu^t)-Glu(OBu^t)-Ile-Thr(Bu^t)-OBzl”, 83%.
Still for that read-out and setting: the result for “Ddz-Ser(Bu^t)-Ser(Bu^t)-Glu(OBu^t)-Ile-Thr(Bu^t)-OBzl” reads 78%; that for “Ddz-Thr(Bu^t)-Lys(Z)-Asp(OBu^t)-Leu-Lys(Z)-Glu(OBu^t)-Lys(Z)-OMe”, 56%; that for “Ddz-Thr(Bu^t)-Ser(Bu^t)-Ser(Bu^t)-Glu-(OBu^t)-Ile-Thr(Bu^t)-OBzl”, 97%.
